Here are results for one molecule from PMC5684413.

Assay [1] concerns the target GST-SIRT1 amino (N)-terminal domain (human). The assay is described as follows: pull-down; GST-SIRT1 deletion mutants (100–200 ng) bound on GS4B beads, purified OGT (300 ng), overnight at 4 °C, washed three times with NP40 lysis buffer; both purified.
Assay [2] has as its target GST-SIRT1 central core domain (human). The assay is described as above.

No constants are given. Whether binding was seen depends on the method and setting. Sequences can lack the tags named with a protein.

B1: MBP-fused OGT (enzyme, UniProt O15294 1-1046)
chain: MASSVGNVADSTEPTKRMLSFQGLAELAHREYQAGDFEAAERHCMQLWRQEPDNTGVLLLLSSIHFQCRRLDRSAHFSTLAIKQNPLLAEAYSNLGNVYKERGQLQEAIEHYRHALRLKPDFIDGYINLAAALVAAGDMEGAVQAYVSALQYNPDLYCVRSDLGNLLKALGRLEEAKACYLKAIETQPNFAVAWSNLGCVFNAQGEIWLAIHHFEKAVTLDPNFLDAYINLGNVLKEARIFDRAVAAYLRALSLSPNHAVVHGNLACVYYEQGLIDLAIDTYRRAIELQPHFPDAYCNLANALKEKGSVAEAEDCYNTALRLCPTHADSLNNLANIKREQGNIEEAVRLYRKALEVFPEFAAAHSNLASVLQQQGKLQEALMHYKEAIRISPTFADAYSNMGNTLKEMQDVQGALQCYTRAIQINPAFADAHSNLASIHKDSGNIPEAIASYRTALKLKPDFPDAYCNLAHCLQIVCDWTDYDERMKKLVSIVADQLEKNRLPSVHPHHSMLYPLSHGFRKAIAERHGNLCLDKINVLHKPPYEHPKDLKLSDGRLRVGYVSSDFGNHPTSHLMQSIPGMHNPDKFEVFCYALSPDDGTNFRVKVMAEANHFIDLSQIPCNGKAADRIHQDGIHILVNMNGYTKGARNELFALRPAPIQAMWLGYPGTSGALFMDYIITDQETSPAEVAEQYSEKLAYMPHTFFIGDHANMFPHLKKKAVIDFKSNGHIYDNRIVLNGIDLKAFLDSLPDVKIVKMKCPDGGDNADSSNTALNMPVIPMNTIAEAVIEMINRGQIQITINGFSISNGLATTQINNKAATGEEVPRTIIVTTRSQYGLPEDAIVYCNFNQLYKIDPSTLQMWANILKRVPNSVLWLLRFPAVGEPNIQQYAQNMGLPQNRIIFSPVAPKEEHVRRGQLADVCLDTPLCNGHTTGMDVLWAGTPMVTMPGETLASRVAASQLTCLGCLELIAKNRQEYEDIAVKLGTDLEYLKKVRGKVWKQRISSPLFNTKQYTMELERLYLQMWEHYAAGNKPDHMIKPVEVTESA
Take B1: the binding entry in assay [1] and in assay [2] was “no binding (tested: 300 ng purified protein)” throughout.
